For some assays here: A negative result means that nothing was seen under these conditions. For at least one entry, the source does not settle the construct or the ends of the probe.
Tests used:
[1] = test system: pSTAT1d (phosphorylated STAT1 core dimer) + TgIST-T2; experiment: competition with a labelled probe; settings: excess cold probe competes 2nd GAF; EMSA: 10 mM Tris pH 7.5, 50 mM KCl, 10 mM DTT, 0.125% Tween-20, 0.05 ug poly(dI-dC), 0.025 ug salmon sperm DNA per 20 ul, room temperature, 10 min; recombinant protein; protein details: N-terminal Strep,6xHis; label: unlabeled
[2] = test system: pSTAT1d (phosphorylated STAT1 core dimer) + TgIST-T2; experiment: EMSA; settings: EMSA: 10 mM Tris pH 7.5, 50 mM KCl, 10 mM DTT, 0.125% Tween-20, 0.05 ug poly(dI-dC), 0.025 ug salmon sperm DNA per 20 ul, room temperature, 10 min, recombinant protein, protein details: N-terminal Strep,6xHis, label: IRDye (far-red) 5' on both strands
[3] = target: pSTAT1d (phosphorylated STAT1 core dimer) (UniProt P42224); experiment: EMSA; settings: 60 pmol STAT1 dimer, 0.05 pmol DNA; EMSA: 10 mM Tris pH 7.5, 50 mM KCl, 10 mM DTT, 0.125% Tween-20, 0.05 ug poly(dI-dC), 0.025 ug salmon sperm DNA per 20 ul, room temperature, 10 min; recombinant protein; residues 132-713; protein details: N-terminal Strep; label: IRDye (far-red) 5' on both strands
[4] = test system: pSTAT1d (phosphorylated STAT1 core dimer) + TgIST-R2-GST; experiment: EMSA; settings: supershifted 2nd GAF; EMSA: 10 mM Tris pH 7.5, 50 mM KCl, 10 mM DTT, 0.125% Tween-20, 0.05 ug poly(dI-dC), 0.025 ug salmon sperm DNA per 20 ul, room temperature, 10 min; recombinant protein; protein details: N-terminal Strep,GST; label: IRDye (far-red) 5' on both strands

Protein sequences, listed by entry. Tags and fused reporters are not part of them. Residues count along the entry.
UniProt P42224, 132-713: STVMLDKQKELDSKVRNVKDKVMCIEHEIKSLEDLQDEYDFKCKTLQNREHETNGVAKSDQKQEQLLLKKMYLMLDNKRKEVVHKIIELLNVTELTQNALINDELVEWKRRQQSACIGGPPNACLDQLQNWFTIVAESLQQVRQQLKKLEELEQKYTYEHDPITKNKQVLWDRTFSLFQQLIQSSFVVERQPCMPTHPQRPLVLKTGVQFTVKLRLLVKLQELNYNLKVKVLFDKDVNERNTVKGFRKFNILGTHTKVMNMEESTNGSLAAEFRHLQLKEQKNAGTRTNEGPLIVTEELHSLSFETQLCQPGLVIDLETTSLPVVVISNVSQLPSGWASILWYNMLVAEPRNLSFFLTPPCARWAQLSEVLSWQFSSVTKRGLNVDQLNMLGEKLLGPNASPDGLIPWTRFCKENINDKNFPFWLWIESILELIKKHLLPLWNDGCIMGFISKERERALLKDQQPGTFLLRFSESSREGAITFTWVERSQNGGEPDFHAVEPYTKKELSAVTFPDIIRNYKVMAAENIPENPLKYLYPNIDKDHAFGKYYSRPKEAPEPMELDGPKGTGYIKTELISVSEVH

GATGTATTTCCCAGAAAAGG (double strand) [GAS cold competitor]
binding result [1]: binds

GGGAAAGGGAAACCGAAACTGAAGCC (double strand) [ISRE probe (ISG15)]
binding result ([2]; TgIST-T2 added): no binding

GATGTATTTCCCAGAAAAGG (double strand) [GAS probe (Fc-gamma receptor gene)]
binding result [3]: binds | binding result ([2]; supershifted 2nd GAF, TgIST-T2 concentration-dependent): binds | binding result [4]: binds

— publication PMC9279507
